{
  "source": "patent US9856534B2",
  "about": "“Selecting use of proteasome inhibitors based on NF-κB2 sequence” (Emory University, priority 2011, dated 2018)",
  "system": "OPM1 cells",
  "experiment": "Western blot of cytochrome C after nuclear and cytoplasmic fractionation of OPM1 cells",
  "format": "cell-based",
  "conditions": "24 hours",
  "note": "For at least one compound, name, drawing or mass did not settle the structure.",
  "data": [
    {"compound": "COC1=C2C[C@@H](C)C[C@H](OC)[C@H](O)[C@@H](C)/C=C(\\C)[C@H](OC(N)=O)[C@@H](OC)/C=C\\C=C(/C)C(=O)NC(=CC1=O)C2=O", "note": "[geldanamycin]", "values": [
      {"measurement": "cytochrome C release on inhibition of HSP", "value": "cytochrome release from the mitochondria"}
    ]}
  ]
}
